Data published in PMC6862723.
These are yes or no findings as the source states them, for the method shown. In cells and extracts the contact can be indirect. Some binding calls cover weakened binding; strength is not graded here.

How the values were obtained:
[1] = molecular target: T1, sodium iodide symporter (NIS) (UniProt Q92911); experiment: proximity ligation; cells and conditions not stated
T1 sequence: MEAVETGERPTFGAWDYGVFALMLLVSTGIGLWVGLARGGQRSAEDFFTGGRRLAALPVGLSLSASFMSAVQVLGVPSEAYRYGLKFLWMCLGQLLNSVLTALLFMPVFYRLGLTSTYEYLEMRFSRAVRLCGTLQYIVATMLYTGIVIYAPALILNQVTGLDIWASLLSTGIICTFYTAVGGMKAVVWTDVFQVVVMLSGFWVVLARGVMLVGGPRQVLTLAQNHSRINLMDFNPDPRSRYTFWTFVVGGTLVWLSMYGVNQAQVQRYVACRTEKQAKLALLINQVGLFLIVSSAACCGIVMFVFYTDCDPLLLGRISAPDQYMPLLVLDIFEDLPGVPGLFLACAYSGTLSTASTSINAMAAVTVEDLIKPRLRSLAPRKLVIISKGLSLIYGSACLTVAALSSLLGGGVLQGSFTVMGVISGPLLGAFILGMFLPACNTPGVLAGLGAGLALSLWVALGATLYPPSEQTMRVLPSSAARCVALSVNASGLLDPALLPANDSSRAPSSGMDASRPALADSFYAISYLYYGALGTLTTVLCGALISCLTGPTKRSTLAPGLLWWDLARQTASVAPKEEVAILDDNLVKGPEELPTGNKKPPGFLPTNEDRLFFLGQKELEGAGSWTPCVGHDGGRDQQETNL

[2] = molecular target: T1, sodium iodide symporter (NIS); experiment: co-IP; cells, tags and conditions not stated

- binding [1]: binds
- binding [2]: binds
Substance: VCP (from UniProt P55072 1-806)
